Data: the supplement of paper PMC10849652
The other results are listed elsewhere or left out.

Amino acid sequences for entries named in this document (tags omitted). A change or cut given only in a name is not applied to a line headed by its entry.
UniProt Q9BQA9: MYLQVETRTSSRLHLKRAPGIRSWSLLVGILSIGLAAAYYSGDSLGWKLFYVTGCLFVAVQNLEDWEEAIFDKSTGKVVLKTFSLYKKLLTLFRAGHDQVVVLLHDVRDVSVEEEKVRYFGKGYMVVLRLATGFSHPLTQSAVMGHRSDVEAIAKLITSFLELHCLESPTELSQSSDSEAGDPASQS
UniProt P32321: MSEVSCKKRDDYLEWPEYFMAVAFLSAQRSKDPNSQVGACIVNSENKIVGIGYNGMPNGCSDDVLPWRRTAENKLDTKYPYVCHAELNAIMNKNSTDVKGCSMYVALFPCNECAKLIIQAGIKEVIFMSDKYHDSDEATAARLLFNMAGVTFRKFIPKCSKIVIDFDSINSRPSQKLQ
UniProt Q9NRF8: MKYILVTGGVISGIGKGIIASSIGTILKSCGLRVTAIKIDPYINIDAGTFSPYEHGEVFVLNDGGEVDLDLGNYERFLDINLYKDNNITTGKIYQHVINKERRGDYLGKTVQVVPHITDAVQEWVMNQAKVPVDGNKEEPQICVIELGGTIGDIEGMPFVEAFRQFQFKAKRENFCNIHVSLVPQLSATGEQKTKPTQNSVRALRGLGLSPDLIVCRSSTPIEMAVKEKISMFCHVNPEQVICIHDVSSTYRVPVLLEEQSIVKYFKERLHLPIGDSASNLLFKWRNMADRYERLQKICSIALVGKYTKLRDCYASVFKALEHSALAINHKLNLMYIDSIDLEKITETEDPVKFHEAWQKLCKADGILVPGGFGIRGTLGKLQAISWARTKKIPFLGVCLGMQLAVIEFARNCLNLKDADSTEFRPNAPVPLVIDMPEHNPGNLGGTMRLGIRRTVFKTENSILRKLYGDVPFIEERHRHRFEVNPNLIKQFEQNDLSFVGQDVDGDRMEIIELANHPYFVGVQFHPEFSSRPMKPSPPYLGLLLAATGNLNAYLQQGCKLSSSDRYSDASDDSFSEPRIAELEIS
UniProt Q14247: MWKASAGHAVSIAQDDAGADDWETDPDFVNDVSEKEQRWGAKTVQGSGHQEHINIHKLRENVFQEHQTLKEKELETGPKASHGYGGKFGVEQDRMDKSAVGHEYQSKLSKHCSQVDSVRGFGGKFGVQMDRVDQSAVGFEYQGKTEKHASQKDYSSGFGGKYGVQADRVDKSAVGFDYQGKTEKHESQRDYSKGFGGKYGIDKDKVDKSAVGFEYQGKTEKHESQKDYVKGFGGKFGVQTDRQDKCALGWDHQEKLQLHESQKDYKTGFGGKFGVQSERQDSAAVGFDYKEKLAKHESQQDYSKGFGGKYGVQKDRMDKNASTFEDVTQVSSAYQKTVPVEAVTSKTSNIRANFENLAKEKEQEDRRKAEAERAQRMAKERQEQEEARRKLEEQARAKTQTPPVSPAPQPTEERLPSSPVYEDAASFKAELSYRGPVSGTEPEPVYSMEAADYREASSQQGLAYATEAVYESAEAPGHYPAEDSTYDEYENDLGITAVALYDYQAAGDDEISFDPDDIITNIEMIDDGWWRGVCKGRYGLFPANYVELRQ
UniProt O60911: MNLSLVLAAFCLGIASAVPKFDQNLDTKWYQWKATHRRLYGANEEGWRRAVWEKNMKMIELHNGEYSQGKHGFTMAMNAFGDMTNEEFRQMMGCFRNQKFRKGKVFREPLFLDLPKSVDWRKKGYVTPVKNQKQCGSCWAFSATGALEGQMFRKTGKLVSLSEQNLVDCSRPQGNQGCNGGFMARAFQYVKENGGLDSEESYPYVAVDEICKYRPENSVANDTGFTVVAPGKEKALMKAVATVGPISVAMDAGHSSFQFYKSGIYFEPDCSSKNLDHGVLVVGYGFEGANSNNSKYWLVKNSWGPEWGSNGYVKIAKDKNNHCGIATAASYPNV
UniProt P21291: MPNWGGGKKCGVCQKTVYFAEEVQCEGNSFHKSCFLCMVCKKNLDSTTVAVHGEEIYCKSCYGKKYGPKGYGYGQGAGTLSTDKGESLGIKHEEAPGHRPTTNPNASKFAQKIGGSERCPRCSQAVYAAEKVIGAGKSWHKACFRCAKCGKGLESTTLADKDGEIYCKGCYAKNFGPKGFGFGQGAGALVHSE
UniProt P01034: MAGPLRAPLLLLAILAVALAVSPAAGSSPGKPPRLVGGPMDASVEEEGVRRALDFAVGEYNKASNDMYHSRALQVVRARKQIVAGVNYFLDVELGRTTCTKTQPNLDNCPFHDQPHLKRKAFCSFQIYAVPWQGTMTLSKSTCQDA
UniProt Q9H0L4: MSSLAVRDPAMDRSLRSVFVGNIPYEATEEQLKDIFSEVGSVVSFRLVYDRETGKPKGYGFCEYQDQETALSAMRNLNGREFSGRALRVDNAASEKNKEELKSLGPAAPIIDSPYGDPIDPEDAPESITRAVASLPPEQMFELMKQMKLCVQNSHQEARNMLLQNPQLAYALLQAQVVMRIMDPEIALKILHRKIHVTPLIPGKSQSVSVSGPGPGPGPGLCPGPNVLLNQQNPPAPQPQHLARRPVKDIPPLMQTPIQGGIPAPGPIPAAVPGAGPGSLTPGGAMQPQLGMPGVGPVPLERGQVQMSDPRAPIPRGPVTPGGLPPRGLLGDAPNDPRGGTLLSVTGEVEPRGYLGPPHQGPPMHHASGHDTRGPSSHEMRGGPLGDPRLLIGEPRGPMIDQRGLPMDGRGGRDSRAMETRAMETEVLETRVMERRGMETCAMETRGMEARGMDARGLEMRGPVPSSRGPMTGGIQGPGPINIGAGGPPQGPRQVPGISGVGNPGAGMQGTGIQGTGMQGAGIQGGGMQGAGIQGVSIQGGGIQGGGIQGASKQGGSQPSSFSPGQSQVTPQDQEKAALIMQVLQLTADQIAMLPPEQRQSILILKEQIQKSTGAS
UniProt P27707: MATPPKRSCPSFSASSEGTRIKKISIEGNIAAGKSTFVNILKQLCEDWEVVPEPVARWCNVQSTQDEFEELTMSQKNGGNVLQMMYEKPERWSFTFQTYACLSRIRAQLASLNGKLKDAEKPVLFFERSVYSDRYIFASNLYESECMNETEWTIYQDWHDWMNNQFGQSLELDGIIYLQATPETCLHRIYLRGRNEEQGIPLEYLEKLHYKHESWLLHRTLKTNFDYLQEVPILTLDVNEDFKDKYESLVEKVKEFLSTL
UniProt Q9NXE8: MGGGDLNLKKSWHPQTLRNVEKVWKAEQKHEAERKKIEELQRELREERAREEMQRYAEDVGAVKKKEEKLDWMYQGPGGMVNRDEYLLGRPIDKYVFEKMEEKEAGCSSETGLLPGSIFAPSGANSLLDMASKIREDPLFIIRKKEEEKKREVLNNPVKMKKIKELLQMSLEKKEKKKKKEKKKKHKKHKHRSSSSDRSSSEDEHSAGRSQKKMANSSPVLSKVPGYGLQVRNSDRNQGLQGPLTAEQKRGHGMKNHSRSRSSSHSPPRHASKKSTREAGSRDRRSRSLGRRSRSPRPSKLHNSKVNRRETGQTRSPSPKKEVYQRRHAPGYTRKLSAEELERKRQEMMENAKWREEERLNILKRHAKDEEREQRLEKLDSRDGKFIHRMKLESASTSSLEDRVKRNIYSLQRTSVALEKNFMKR
UniProt P07711: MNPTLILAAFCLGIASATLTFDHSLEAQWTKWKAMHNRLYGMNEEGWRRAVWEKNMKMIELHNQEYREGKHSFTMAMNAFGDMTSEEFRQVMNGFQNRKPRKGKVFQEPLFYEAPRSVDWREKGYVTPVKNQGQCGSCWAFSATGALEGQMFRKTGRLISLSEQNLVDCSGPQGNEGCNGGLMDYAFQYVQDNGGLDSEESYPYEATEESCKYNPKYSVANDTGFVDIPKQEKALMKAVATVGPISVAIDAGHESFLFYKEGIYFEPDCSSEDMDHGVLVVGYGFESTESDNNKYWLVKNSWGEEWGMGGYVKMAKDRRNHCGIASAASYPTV
UniProt P51397: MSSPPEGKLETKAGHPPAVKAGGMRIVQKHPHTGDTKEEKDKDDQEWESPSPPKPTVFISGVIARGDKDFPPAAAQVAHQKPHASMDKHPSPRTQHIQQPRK
UniProt Q8NCG7: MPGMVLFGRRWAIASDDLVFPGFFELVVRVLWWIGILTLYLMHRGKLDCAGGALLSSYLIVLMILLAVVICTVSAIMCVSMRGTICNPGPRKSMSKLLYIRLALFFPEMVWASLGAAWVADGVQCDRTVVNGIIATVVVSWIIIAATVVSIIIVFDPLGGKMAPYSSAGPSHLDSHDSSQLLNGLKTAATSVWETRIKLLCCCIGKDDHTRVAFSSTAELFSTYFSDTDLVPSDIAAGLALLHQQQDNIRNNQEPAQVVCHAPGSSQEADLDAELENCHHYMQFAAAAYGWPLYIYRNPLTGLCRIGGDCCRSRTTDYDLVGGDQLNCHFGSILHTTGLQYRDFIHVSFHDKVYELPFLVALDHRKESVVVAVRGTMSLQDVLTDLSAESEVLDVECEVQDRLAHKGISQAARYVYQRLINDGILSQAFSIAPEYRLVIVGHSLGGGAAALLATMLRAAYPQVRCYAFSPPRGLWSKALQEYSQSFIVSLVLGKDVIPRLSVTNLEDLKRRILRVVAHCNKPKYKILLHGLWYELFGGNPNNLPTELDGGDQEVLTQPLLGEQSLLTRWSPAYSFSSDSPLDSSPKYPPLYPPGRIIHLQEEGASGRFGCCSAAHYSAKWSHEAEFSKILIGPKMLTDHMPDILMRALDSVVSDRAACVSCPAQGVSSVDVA
UniProt Q13616, whole entry, looked up: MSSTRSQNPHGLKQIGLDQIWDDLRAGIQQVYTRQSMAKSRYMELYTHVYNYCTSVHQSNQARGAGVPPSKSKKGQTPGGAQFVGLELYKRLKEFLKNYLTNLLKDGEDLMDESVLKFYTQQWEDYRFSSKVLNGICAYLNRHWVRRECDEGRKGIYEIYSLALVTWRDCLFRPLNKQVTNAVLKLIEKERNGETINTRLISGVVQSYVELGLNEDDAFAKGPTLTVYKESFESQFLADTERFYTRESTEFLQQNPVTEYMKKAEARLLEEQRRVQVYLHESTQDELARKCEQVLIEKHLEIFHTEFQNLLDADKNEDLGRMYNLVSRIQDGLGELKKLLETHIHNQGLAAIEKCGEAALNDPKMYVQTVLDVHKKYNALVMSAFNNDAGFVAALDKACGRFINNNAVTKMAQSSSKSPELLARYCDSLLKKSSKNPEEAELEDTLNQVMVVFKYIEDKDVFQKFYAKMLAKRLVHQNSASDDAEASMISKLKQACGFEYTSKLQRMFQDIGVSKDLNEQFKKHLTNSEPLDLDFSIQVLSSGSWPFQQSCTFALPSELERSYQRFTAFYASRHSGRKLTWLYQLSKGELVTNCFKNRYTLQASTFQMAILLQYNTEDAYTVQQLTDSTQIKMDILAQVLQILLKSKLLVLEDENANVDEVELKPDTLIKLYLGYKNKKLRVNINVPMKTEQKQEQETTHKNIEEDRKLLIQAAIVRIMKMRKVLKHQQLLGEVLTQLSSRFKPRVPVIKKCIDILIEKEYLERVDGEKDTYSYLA
UniProt Q96EP5: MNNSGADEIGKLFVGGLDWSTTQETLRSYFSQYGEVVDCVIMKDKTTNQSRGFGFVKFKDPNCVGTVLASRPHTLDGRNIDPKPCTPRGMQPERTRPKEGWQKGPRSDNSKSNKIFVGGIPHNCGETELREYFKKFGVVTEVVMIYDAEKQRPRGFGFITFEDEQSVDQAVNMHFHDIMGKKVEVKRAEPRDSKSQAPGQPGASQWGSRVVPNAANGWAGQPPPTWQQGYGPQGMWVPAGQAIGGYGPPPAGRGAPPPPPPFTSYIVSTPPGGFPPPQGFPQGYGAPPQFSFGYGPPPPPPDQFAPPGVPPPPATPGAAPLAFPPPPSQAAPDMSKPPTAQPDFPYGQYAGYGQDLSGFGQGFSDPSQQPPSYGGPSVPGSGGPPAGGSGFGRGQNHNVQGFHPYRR
UniProt Q93034, whole entry, looked up: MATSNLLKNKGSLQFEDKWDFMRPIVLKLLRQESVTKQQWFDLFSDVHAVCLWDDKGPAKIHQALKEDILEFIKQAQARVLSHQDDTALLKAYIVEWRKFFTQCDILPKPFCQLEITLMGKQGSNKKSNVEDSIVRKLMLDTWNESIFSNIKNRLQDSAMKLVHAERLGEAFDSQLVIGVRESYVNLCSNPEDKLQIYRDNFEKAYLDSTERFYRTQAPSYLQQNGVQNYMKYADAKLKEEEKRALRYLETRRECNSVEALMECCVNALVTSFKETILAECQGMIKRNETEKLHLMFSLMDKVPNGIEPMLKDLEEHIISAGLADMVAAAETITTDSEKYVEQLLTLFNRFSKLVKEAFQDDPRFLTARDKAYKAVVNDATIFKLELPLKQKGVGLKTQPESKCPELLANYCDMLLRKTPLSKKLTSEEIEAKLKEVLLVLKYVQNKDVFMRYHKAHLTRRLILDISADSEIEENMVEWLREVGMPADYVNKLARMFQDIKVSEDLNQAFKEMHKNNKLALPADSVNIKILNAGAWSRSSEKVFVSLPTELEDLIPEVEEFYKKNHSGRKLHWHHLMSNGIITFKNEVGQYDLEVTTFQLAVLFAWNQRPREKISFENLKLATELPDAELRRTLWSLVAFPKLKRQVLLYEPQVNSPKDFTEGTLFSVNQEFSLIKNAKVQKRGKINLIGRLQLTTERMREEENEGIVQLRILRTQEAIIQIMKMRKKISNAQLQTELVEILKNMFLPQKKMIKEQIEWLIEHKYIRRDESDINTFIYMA

Legend:
Test in all cases: log2 fold change, soluble protein after heating vs DMSO (PISA); higher = thermal stabilisation; K562 cells, 10 uM, 30 min; active = over 0.2 and 3.5 SD of the protein, either way, in both replicates (recomputed)
[1] = compound: CS(=O)(=O)c1ccc(-c2cnc(N)c(C(=O)Nc3ccccc3)n2)cc1
How it was run: (§1)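 Soluble protein was quantified by TMTpro 16plex LC-MS/MS after channel sums were equalised. It was obtained as the supernatant after 21,000xg for 90 min from pooled aliquots of K562 cells (2×10^6 cells/mL, 10 μM compound, 30 min) heated for 3 min across 48°C-58°C and extracted in PBS with 0.5% NP-40 at 4°C. Thermal stability values are relative to control samples and come from duplicates. They are given as log2 fold changes.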

[2] = compound: C[C@@H](Oc1cc(-c2cnn(C3CCNCC3)c2)cnc1N)c1c(Cl)ccc(F)c1Cl [crizotinib]
How it was run: as §1

[3] = compound: C[C@@H]1COCCN1C2=NC(=NC(=C2)C3(CC3)S(=O)(=O)C)C4=C5C=CNC5=CC=C4
How it was run: as §1

[4] = compound: C[C@H](C1=CC=C(C=C1)C(=O)NC2=C3C=CNC3=NC=C2)N
How it was run: as §1

[5] = compound: C[C@H](Nc1ncnc2nc[nH]c12)c1cc2cccc(Cl)c2c(=O)n1-c1ccccc1 [duvelisib]
How it was run: as §1

[6] = compound: Cc1cc(Nc2cc(CN3CCOCC3)c3nc(C)c(Cc4ccc(Cl)cc4F)n3n2)n[nH]1 [gandotinib]
How it was run: as §1

[7] = compound: Cc1cc(Nc2cc(N3CCN(C)CC3)nc(Sc3ccc(NC(=O)C4CC4)cc3)n2)n[nH]1 [tozasertib]
How it was run: as §1

[8] = compound: Cc1cc(SCc2sc(-c3ccc(C(F)(F)F)cc3)nc2C)ccc1OCC(=O)O
How it was run: as §1

[9] = compound: Cc1ccc(-n2nc(C(C)(C)C)cc2NC(=O)Nc2ccc(OCCN3CCOCC3)c3ccccc23)cc1 [doramapimod]
How it was run: as §1

[10] = compound: Cc1ccc(C(=O)N(CCCN)[C@@H](c2nc3cc(Cl)ccc3c(=O)n2Cc2ccccc2)C(C)C)cc1 [ispinesib]
How it was run: as §1

Target	log2 fold change [1]	log2 fold change [2]	log2 fold change [3]	log2 fold change [4]	log2 fold change [5]	log2 fold change [6]	log2 fold change [7]	log2 fold change [8]	log2 fold change [9]	log2 fold change [10]
CTU2 (UniProt Q2VPK5)	inactive: 0.032	inactive: -0.07	inactive: 0.105	inactive: -0.043	inactive: -0.016	inactive: -0.089	inactive: 0.004	inactive: 0.023	inactive: 0.088	inactive: -0.036
CYBC1 (UniProt Q9BQA9)	inactive: 0.032	inactive: 0.076	inactive: -0.047	inactive: -0.029	inactive: 0.101	inactive: -0.126	inactive: -0.027	inactive: -0.056	inactive: 0.002	inactive: -0.116
DCTD isoform 2 (UniProt P32321)	inactive: 0.01	inactive: 0.054	inactive: 0.091	inactive: -0.017	inactive: 0.04	inactive: -0.051	inactive: 0.018	inactive: -0.02	inactive: -0.029	inactive: 0.046
CYB5R2 (UniProt Q6BCY4)	inactive: 0.025	inactive: 0.055	inactive: 0.054	inactive: 0.053	inactive: 0.022	inactive: 0.061	inactive: -0.033	inactive: -0.057	inactive: 0.018	inactive: -0.009
CTPS2 (UniProt Q9NRF8)	inactive: 0.019	inactive: 0.031	inactive: 0.028	inactive: -0.047	inactive: 0.056	inactive: -0.007	inactive: -0.03	inactive: -0.021	inactive: -0.037	inactive: 0.059
CTTN (UniProt Q14247)	inactive: 0.011	inactive: 0.02	inactive: 0.043	inactive: -0.076	inactive: 0.019	inactive: 0.006	inactive: 0.022	inactive: -0.046	inactive: -0.001	inactive: 0.04
CSTB (UniProt P04080)	inactive: 0.011	inactive: 0.102	inactive: 0.029	inactive: -0.069	inactive: 0.024	inactive: -0.052	inactive: 0.054	inactive: 0.017	inactive: -0.017	inactive: 0.075
CUL4B (UniProt K4DI93)	inactive: 0.031	inactive: 0.029	inactive: 0.072	inactive: -0.135	inactive: 0.003	inactive: -0.064	inactive: 0.018	inactive: 0.013	inactive: -0.044	inactive: 0.094
CTSV (UniProt O60911)	inactive: 0.073	active: -1.59	inactive: 0.099	inactive: -0.01		inactive: -0.334		inactive: -0.04	inactive: -0.005	active: -0.453
CSRP1 (UniProt P21291)	inactive: -0.004	inactive: 0.02	inactive: -0.02	inactive: -0.079	inactive: -0.001	inactive: 0.052	inactive: -0.041	inactive: -0.052	inactive: -0.084	inactive: 0.054
CUL4A (UniProt Q13619)	inactive: 0.068	inactive: -0.008	inactive: 0.018	inactive: -0.057	inactive: 0.038	inactive: -0.044	inactive: 0.01	inactive: 0.017	inactive: -0.012	inactive: 0.049
CSTF1 (UniProt Q05048)	inactive: 0.004	inactive: 0.087	inactive: -0.017	inactive: 0.009	inactive: 0.116	inactive: -0.007	inactive: -0.018	inactive: 0.048	inactive: -0.1	inactive: 0.107
DCP1A (UniProt Q9NPI6)	inactive: -0.134	inactive: -0.285	inactive: -0.05	inactive: 0.169	inactive: -0.049	inactive: 0.063	inactive: 0.2	inactive: 0.149	inactive: 0.052	inactive: -0.058
CYB5R4 (UniProt Q7L1T6)	inactive: -0.013	inactive: -0.008	inactive: 0.048	inactive: -0.041	inactive: 0.07	inactive: -0.006	inactive: -0.062	inactive: -0.019	inactive: 0.001	inactive: 0.009
CST3 (UniProt P01034)	inactive: -0.147	inactive: 0.206	inactive: -0.036	inactive: 0.017	inactive: 0.052	inactive: 0.017	inactive: 0.041	inactive: -0.068	inactive: 0.07	inactive: 0.159
CSTF2T (UniProt Q9H0L4)	inactive: -0.002	inactive: 0.048	inactive: 0.148	inactive: 0.059	inactive: 0.028	inactive: -0.005	inactive: 0.036	inactive: -0.057	inactive: 0.022	inactive: 0.046
DCAF1 (UniProt Q9Y4B6)	inactive: 0.009	inactive: -0.032	inactive: 0.041	inactive: -0.033	inactive: 0.03	inactive: 0.011	inactive: 0.009	inactive: 0.032	inactive: -0.019	inactive: -0.014
DCK (UniProt P27707)	inactive: 0.039	inactive: 0.117	inactive: -0.052	inactive: -0.065	inactive: -0.006	inactive: 0.146	inactive: -0.032	inactive: -0.046	inactive: -0.002	inactive: 0.077
CTNNA1 isoform 2 (UniProt P35221)	inactive: -0.027	inactive: -0.045	inactive: -0.036	inactive: -0.056	inactive: 0.013	inactive: -0.012	inactive: -0.06	inactive: -0.013	inactive: 0.019	inactive: -0.008
CWC25 (UniProt Q9NXE8)	inactive: -0.049	inactive: -0.057	inactive: -0.203	inactive: 0.401		inactive: 0.249	inactive: 0.039		inactive: 0.239	inactive: -0.149
CTSL (UniProt P07711)	inactive: 0.025	active: -0.489	inactive: -0.02	inactive: 0.021		inactive: 0.006		inactive: -0.013	inactive: 0.018	inactive: -0.199
DAP (UniProt P51397)	inactive: 0.04	inactive: 0.02	inactive: -0.002	inactive: -0.05	inactive: 0.04	inactive: 0.05	inactive: -0.023	inactive: -0.033	inactive: 0.051	inactive: 0.05
DBI isoform 5 (UniProt P07108)	inactive: 0.027	inactive: 0.188	inactive: 0.139	inactive: -0.028	inactive: 0.135	inactive: 0.116	inactive: 0.049	inactive: -0.013	inactive: 0.031	inactive: 0.122
DCTN3 (UniProt O75935)	inactive: -0.003	inactive: 0.08	inactive: 0.104	inactive: 0.022	inactive: 0.022	inactive: -0.016	inactive: 0.022	inactive: 0.043	inactive: -0.029	inactive: -0.015
DAGLB (UniProt Q8NCG7)	inactive: -0.049	inactive: 0.008	inactive: 0.023	inactive: -0.072	inactive: 0.016	inactive: 0.068	inactive: 0.046	inactive: 0.035	inactive: -0.015	inactive: 0.053
CUL1 (UniProt Q13616)	inactive: 0.003	inactive: 0.074	inactive: 0.018	inactive: -0.087	inactive: 0.011	inactive: 0.034	inactive: -0.002	inactive: -0.02	inactive: -0.051	inactive: 0.098
DAZAP1 (UniProt Q96EP5)	inactive: -0.057	inactive: 0.014	inactive: -0.045	inactive: 0.036	inactive: -0.016	inactive: -0.041	inactive: -0.048	inactive: -0.006	inactive: -0.011	inactive: -0.01
CUSTOS (UniProt Q96C57)	inactive: -0.038	inactive: 0.018	inactive: -0.081	inactive: -0.04	inactive: 0.05	inactive: -0.001	inactive: 0.028	inactive: -0.045	inactive: 0.029	inactive: 0.062
CUL5 (UniProt Q93034)	inactive: 0.022	inactive: 0.054	inactive: 0.052	inactive: -0.046	inactive: 0.024	inactive: -0.046	inactive: -0.013	inactive: -0.026	inactive: -0.02	inactive: 0.038
DCAF15 (UniProt Q66K64)	inactive: 0.081	inactive: 0	inactive: -0.094	inactive: -0.007	inactive: 0.075		inactive: -0.048	inactive: 0.017	inactive: 0.059	inactive: 0.062

6 entries from above, with bars between the fields:
Target | log2 fold change [1] | log2 fold change [2] | log2 fold change [3] | log2 fold change [4] | log2 fold change [5] | log2 fold change [6] | log2 fold change [7] | log2 fold change [8] | log2 fold change [9] | log2 fold change [10]
CSTF2T (UniProt Q9H0L4) | inactive: -0.002 | inactive: 0.048 | inactive: 0.148 | inactive: 0.059 | inactive: 0.028 | inactive: -0.005 | inactive: 0.036 | inactive: -0.057 | inactive: 0.022 | inactive: 0.046
DCAF1 (UniProt Q9Y4B6) | inactive: 0.009 | inactive: -0.032 | inactive: 0.041 | inactive: -0.033 | inactive: 0.03 | inactive: 0.011 | inactive: 0.009 | inactive: 0.032 | inactive: -0.019 | inactive: -0.014
DCK (UniProt P27707) | inactive: 0.039 | inactive: 0.117 | inactive: -0.052 | inactive: -0.065 | inactive: -0.006 | inactive: 0.146 | inactive: -0.032 | inactive: -0.046 | inactive: -0.002 | inactive: 0.077
CTNNA1 isoform 2 (UniProt P35221) | inactive: -0.027 | inactive: -0.045 | inactive: -0.036 | inactive: -0.056 | inactive: 0.013 | inactive: -0.012 | inactive: -0.06 | inactive: -0.013 | inactive: 0.019 | inactive: -0.008
CWC25 (UniProt Q9NXE8) | inactive: -0.049 | inactive: -0.057 | inactive: -0.203 | inactive: 0.401 |  | inactive: 0.249 | inactive: 0.039 |  | inactive: 0.239 | inactive: -0.149
CTSL (UniProt P07711) | inactive: 0.025 | active: -0.489 | inactive: -0.02 | inactive: 0.021 |  | inactive: 0.006 |  | inactive: -0.013 | inactive: 0.018 | inactive: -0.199
